Results deposited as PubChem BioAssay AID1259254 (NCATS, 2017).
Purpose: 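Genome-wide screen for genes that prevent DNA re-replication in cancer cells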 (primary screen). Cell system: human HCT116 colorectal cancer cells. Reagent: single siRNA against human genes. Duration: 3 days. Measurement: 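Imaged Hoechst DNA stain sorts each cell into a cycle phase by DNA amount; per plate, G2 fraction set to 0% for non-targeting and 100% for GMNN siRNA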. Scale: G2 robust z-score and G2 cells, % of GMNN control: higher = more G2 cells, more excess DNA replication; raw share of cells in G2: higher = larger share of cells with G2 DNA content. Rule for the call: 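An siRNA counts as active if its G2 robust z-score lies at least 5 MADs above the screen median; here such calls match roughly 38% of GMNN control or more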.
Here is one part, drawn at random, of about 59,000 reagents. About 1,550 of them (2.6%) count as active. 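G2 share is only a proxy for re-replication; each gene was hit by three separate siRNAs, and active genes were retested.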 Raw values vary from plate to plate and are shown uncorrected. Entries without a mark were called inactive. Reagent sequences are not shown. Not stated in the record: the amount of reagent.

target gene,PubChem SID,G2 robust z-score,"G2 cells, % of GMNN control",raw share of cells in G2 (%)
NFE2L2,SID160778005,-0.621,-1.4,2.73
NFE2L2,SID160778006,1.56,13.9,10.7
NFE2L2,SID160778007,4.93,37.7,20.4
CRNN,SID160739587,1.1,10.7,6.58
CRNN,SID160739588,-1.07,-4.59,3.83
CRNN,SID160739589,-0.227,1.37,4.06
TPST1,SID160720093,0.543,6.79,7.65
TPST1,SID160720094,-0.916,-3.47,2.96
TPST1,SID160720095,2.58,21.1,12.3
ZNF787,SID160756425,-0.0325,2.74,4.03
ZNF787,SID160756426,0.166,4.14,4.6
ZNF787,SID160756427,-0.905,-3.4,2.33
SLC25A39,SID160741112,-0.485,-0.448,4.08
SLC25A39,SID160741113,5.54 (active),41.9,19.9
SLC25A39,SID160741115,1.65,14.6,12.6
NHLRC3,SID160765730,-0.819,-2.8,2.81
NHLRC3,SID160765731,0.582,7.06,6.48
NHLRC3,SID160765732,-0.647,-1.59,3.95
RPH3A,SID160730808,-0.148,1.93,7.14
RPH3A,SID160732891,1.48,13.4,8.44
RPH3A,SID160732907,-0.123,2.1,4.86
AJAP1,SID160744682,-0.32,0.715,4.7
AJAP1,SID160744683,1.28,12,9.34
AJAP1,SID160744684,-0.739,-2.23,5.45
PCDH11X,SID160738726,2.85,23,16.6
PCDH11X,SID160738727,2.24,18.7,10.4
PCDH11X,SID160738728,-0.179,1.71,4.55
VAX2,SID160724333,3.75,29.3,13.9
VAX2,SID160730900,-0.24,1.28,4.41
VAX2,SID160737019,0.0753,3.5,7.75
GRWD1,SID160751377,-0.339,0.58,4.3
GRWD1,SID160751378,-0.398,0.164,3.51
GRWD1,SID160751379,-0.754,-2.33,1.7
UBP1,SID160718560,-0.0316,2.75,4.55
UBP1,SID160718561,1.42,12.9,10.9
UBP1,SID160718562,-0.712,-2.05,2.37
RBM38,SID160743781,-0.657,-1.65,3.85
RBM38,SID160743782,-0.286,0.955,6.85
RBM38,SID160743783,1.34,12.4,9.5
OR4K2,SID160733254,-0.801,-2.67,3.49
OR4K2,SID160766503,-0.696,-1.93,3.11
OR4K2,SID160766504,0.0277,3.16,4.78
NCEH1,SID160746253,0.608,7.25,7.2
NCEH1,SID160746254,0.1,3.67,6.21
NCEH1,SID160746255,-0.0432,2.66,3.87
IFT54,SID160737691,-1.18,-5.34,2.41
IFT54,SID160737692,0.00925,3.03,5.25
IFT54,SID160737693,1.86,16.1,8.92
RPL37A,SID160716107,5.08 (active),38.7,21.4
RPL37A,SID160724036,2.02,17.2,11
RPL37A,SID160733714,4.19,32.4,15.1
GEMIN5,SID160737279,-0.439,-0.122,4.37
GEMIN5,SID160737280,-0.443,-0.153,3.87
GEMIN5,SID160737281,-0.551,-0.912,2.98
MBD5,SID160744334,-0.315,0.75,4.81
MBD5,SID160744335,-0.147,1.93,4.94
MBD5,SID160744336,-0.178,1.71,3.68
MRPL34,SID160748192,0.597,7.17,7.7
MRPL34,SID160748193,1.42,13,10.4
MRPL34,SID160748194,-0.507,-0.599,2.54
VSTM4,SID160760654,-0.571,-1.05,3.23
VSTM4,SID160760655,-0.291,0.92,3.27
VSTM4,SID160760657,0.284,4.97,4.33
LINC01100,SID160734708,1.86,16.1,9.52
LINC01100,SID160773517,1.09,10.6,7.84
LINC01100,SID160773518,0.053,3.34,4.88
SALL3,SID160738495,0.941,9.59,7.13
SALL3,SID160738496,0.335,5.32,5.95
SALL3,SID160738497,0.762,8.33,9.94
ATP5F1C,SID160723074,1.91,16.4,10.3
ATP5F1C,SID160723184,-1.09,-4.73,3.39
ATP5F1C,SID160723291,4.02,31.3,15.6
OR5AS1,SID160761260,0.38,5.64,5.62
OR5AS1,SID160761261,-0.339,0.58,3.33
OR5AS1,SID160761262,0.988,9.92,6.36
TESC,SID160742703,2.18,18.3,9.25
TESC,SID160742704,2.72,22.1,15.9
TESC,SID160742705,-0.107,2.21,4.33
SLC9A9,SID160763525,-0.117,2.14,5.8
SLC9A9,SID160763526,-0.204,1.53,6.57
SLC9A9,SID160763527,2.48,20.4,11.7
SS18,SID160717416,-1.11,-4.83,2.89
SS18,SID160717417,0.243,4.68,5.51
SS18,SID160717418,3.85,30,15.8
VNN3P,SID160743613,3.78,29.6,19.4
VNN3P,SID160743614,-1.17,-5.3,2.54
VNN3P,SID160743615,0.542,6.78,7.16

8 entries from above, set out differently.
target gene | PubChem SID | G2 robust z-score | G2 cells, % of GMNN control | raw share of cells in G2 (%)
VSTM4 | SID160760654 | -0.571 | -1.05 | 3.23
VSTM4 | SID160760655 | -0.291 | 0.92 | 3.27
VSTM4 | SID160760657 | 0.284 | 4.97 | 4.33
LINC01100 | SID160734708 | 1.86 | 16.1 | 9.52
LINC01100 | SID160773517 | 1.09 | 10.6 | 7.84
LINC01100 | SID160773518 | 0.053 | 3.34 | 4.88
SALL3 | SID160738495 | 0.941 | 9.59 | 7.13
SALL3 | SID160738496 | 0.335 | 5.32 | 5.95
